Assay results taken from paper PMC10703885 (Cell Death & Disease, 2023).
Some results come without the dose or concentration used.

Test system: HCT116 cells
Experiment: RNA sequencing analysis (differentially expressed genes)
Assay type: cell-based
Conditions: HCT116, 24 h, RNA-Seq, vs DMSO

## COc1ccc(N(Cc2nc(-c3ccccc3Cl)cs2)C(=O)CCCCCC(=O)NO)cc1 [HR488B]
  downregulated genes: 2246
  upregulated genes: 3105
